At least one structure is not confirmed: it was looked up by name or label, or the drawing left a doubt.
Tested on: isolated liver mitochondria
Assay: Mitochondrial oxygen consumption rate (OCR) assay
Format: biochemical, Sprague-Dawley rats
Conditions: isolated rat liver mitochondria, state 3 (S3) respiration, glutamate/malate; Table 3
Source text: Male Sprague-Dawley rats (8-10 weeks of age) were euthanized with an overdose of carbon dioxide. The liver was rapidly excised and placed in ice-cold phosphate-buffered saline (PBS) before isolation process. Mitochondria were isolated using the MitoCheck® Mitochondrial Isolation Kit (Cayman Chemical #701010, Ann Arbor, Mich.) according to manufacturer's instructions. In brief, approximately 10-14 grams of liver tissues were finely minced using a pair of scissors, and washed repeatedly with ice-cold PBS, followed by Mito Isolation Buffer. The minced tissues were homogenized with 30 ml Mito Homogenization Buffer in 40 ml dounce homogenizer and a smooth glass grinder. The homogenate was split into two clean 30 ml polycarbonate tubes and centrifuged at 1,000×g, 4° C., for 3 minutes. The supernatant was subjected to further centrifugation at 10,000×g, 4° C., for 10 minutes. […] Protein concentration of mitochondria was determined using a bicinchoninic acid protein assay kit (Thermo Scientific, Waltham, Mass.).
Oxygen consumption was monitored as essentially described by Will et al., “Analysis of mitochondrial function using phosphorescent oxygen-sensitive probes,” Nature Protocols Vol. 1(6) (2006) 2563. […] Oxygen consumption was measured for 30 min at 30° C. using a spectrofluorimeter (FLUOstar Omega, BMG Labtech, Cary, N.C.). […]

For Cc1nc(-c2ccc(OC(C)C)cc2)ncc1C(=O)N[C@@H](CNS(N)(=O)=O)C(=O)N(C)[C@@H]1C(=O)N[C@@H](C)C(=O)N[C@H](C(=O)O)Cc2ccc(OC[C@H](O)CN)c(c2)-c2cc1cc(OC[C@H](O)CN)c2O [Example 14, (8S,11S,14S)-18-hydroxy-11-methyl-14-[methyl-[(2S)-2-[[2-(4-isopropoxy-phenyl)-4-methyl-pyrimidine-5-carbonyl]amino]-3-(sulfamoylamino)-propanoyl]amino]-10,13-dioxo-3,17-bis[(2R)-3-amino-2-hydroxy-propoxy]-9,12-diazatricyclo-[13.3.1.12,6]icosa-1(18),2(20),3,5,15(19), 16-hexaene-8-carboxylic acid], the IC50 was greater than 250 µM.

— patent US11208387B2, “Macrocyclic broad spectrum antibiotics” (Genentech, Inc., priority 2019, dated 2021)
